The target in test [1] is GST-truncated AIF, amino acids 263-480 (human) (UniProt O95831). As to the kind of experiment: pull-down; GST pull-down in vitro with GST-AIF or GST-truncated AIF as bait; method as in ref. 22.
In test [2] the target is AIF 57 kDa (WT), overexpressed (human) (UniProt O95831). Nature of the test: co-IP; breast cancer cells overexpressing PAK5 and AIF 57 kDa; cytoplasmic and nuclear proteins separated by kit, then immunoprecipitation and western blot.

Chains of the proteins cited; added tags and fusions are not shown. Lines headed by an entry give the natural chain unless they say otherwise; changes in a name come on top. Residues count along the entry.
UniProt O95831: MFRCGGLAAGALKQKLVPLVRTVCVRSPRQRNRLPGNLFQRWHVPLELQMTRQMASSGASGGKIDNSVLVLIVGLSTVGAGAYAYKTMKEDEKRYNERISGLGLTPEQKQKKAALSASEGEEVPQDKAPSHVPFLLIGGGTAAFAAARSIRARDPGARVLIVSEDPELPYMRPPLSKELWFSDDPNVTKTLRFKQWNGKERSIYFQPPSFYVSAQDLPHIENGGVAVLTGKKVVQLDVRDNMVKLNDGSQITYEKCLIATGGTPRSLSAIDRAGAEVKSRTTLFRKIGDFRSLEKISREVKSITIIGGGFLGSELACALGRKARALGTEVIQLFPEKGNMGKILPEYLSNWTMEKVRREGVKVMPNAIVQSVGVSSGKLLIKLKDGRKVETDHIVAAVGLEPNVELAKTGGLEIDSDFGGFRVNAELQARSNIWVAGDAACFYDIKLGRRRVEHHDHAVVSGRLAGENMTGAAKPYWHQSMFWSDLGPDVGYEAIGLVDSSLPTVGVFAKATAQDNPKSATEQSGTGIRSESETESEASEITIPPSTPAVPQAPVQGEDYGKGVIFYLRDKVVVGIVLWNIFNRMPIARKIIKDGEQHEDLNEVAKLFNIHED
AIF 57 kDa (WT), overexpressed: residues 102-613 of O95831
GST-truncated AIF, amino acids 263-480: residues 263-480 of O95831
UniProt Q9P286: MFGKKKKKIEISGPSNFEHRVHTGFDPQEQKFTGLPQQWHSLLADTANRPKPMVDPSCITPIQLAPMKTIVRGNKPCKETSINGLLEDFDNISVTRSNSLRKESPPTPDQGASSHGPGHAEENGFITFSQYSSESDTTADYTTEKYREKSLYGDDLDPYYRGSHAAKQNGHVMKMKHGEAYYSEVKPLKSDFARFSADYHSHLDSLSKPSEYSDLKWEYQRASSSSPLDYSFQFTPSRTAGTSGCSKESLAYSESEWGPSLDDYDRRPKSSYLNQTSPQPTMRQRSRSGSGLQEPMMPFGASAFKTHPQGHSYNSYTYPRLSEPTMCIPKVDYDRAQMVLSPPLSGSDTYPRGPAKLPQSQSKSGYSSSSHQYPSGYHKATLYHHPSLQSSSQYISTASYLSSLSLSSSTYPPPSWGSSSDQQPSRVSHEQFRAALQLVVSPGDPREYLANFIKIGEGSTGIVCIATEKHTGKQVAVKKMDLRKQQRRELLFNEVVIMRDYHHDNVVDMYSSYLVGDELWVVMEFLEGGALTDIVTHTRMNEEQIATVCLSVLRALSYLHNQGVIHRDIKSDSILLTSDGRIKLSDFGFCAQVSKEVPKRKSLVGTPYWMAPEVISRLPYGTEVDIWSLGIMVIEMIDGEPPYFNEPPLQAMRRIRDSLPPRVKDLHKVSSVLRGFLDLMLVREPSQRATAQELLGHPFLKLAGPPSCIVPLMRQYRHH

Results are given in words; binding and its absence hold for the method and conditions named. In cells and extracts the contact can be indirect. Some entries that bind do so weakly or less than the wild type.

Turning to “PAK5 used in the GST pull-down assays (from UniProt Q9P286 1-719) (enzyme)”, the binding entry in test [1] is “binds”.
Turning to “PAK5, overexpressed in cells (from UniProt Q9P286 1-719) (enzyme)”, the binding entry in test [2] is given as “binds”.

(Values after paper PMC8040471.)
